Our source for the binding values is doi:10.1101/040543.

No constants are given. Whether binding was seen depends on the method and setting. For part of these data: Binding seen in cells or lysates may run through a third protein. Some entries that bind do so weakly or less than the wild type. For part of these data: Where a sequence is shown, tags or fusion partners need not be part of it.

The target in assay [1] is T1, PARAQUAT TOLERANCE3 (PQT3), full-length, two-hybrid bait in pDEST32 (Arabidopsis thaliana) (UniProt F4JP52).
T1 sequence: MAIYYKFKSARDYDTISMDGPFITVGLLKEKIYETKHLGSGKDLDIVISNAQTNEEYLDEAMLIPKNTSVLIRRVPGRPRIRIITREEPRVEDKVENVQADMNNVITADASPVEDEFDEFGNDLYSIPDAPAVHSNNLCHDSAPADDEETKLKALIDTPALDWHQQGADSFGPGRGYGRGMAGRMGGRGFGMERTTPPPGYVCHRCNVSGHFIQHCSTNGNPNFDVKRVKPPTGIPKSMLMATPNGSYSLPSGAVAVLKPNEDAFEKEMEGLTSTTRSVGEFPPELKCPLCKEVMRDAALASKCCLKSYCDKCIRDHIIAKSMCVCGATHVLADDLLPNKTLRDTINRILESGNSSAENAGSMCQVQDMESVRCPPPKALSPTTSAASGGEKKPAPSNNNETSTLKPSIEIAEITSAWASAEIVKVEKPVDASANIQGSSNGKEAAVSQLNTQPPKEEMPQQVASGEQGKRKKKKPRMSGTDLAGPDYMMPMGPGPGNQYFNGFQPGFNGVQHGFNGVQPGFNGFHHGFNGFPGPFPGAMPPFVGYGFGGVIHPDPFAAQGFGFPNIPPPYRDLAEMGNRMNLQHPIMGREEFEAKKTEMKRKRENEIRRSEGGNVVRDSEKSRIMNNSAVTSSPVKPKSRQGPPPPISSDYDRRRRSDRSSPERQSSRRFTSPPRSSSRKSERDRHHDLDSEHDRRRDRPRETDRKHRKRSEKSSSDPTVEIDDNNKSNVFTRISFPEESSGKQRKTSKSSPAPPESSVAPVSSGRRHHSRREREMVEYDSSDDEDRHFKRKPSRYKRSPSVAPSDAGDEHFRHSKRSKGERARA
Kind of assay: two-hybrid.

For assay [2], the target named is T2, NE-PQT3 (the N-terminal part of YFP fused with PQT3) (Arabidopsis thaliana) (UniProt F4JP52).
T2 sequence: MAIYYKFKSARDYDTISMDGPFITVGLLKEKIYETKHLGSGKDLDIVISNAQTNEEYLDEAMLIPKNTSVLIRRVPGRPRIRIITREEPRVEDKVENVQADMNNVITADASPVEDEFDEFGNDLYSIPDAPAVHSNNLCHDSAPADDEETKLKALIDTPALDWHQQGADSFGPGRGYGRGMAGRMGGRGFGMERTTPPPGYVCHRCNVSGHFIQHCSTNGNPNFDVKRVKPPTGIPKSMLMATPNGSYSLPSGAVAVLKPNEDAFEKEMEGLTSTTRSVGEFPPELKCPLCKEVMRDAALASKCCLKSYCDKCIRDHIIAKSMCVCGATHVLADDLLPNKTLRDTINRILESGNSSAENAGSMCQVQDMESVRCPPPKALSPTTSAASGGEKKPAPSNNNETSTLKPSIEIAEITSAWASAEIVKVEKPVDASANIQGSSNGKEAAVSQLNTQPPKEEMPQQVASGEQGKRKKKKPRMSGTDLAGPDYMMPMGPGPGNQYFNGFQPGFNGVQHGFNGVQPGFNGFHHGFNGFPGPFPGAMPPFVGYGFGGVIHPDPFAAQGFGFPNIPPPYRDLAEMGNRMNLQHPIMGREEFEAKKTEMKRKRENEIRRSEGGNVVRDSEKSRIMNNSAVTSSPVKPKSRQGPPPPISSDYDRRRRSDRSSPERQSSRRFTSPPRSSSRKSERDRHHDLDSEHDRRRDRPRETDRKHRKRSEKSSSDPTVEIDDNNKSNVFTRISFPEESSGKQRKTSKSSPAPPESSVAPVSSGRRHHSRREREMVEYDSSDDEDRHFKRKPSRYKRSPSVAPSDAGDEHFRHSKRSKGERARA
Kind of assay: split reporter.

B1: PRMT4b, two-hybrid prey in pDEST22 (protein, UniProt Q84W92 1-535)
chain: MEVSSVKKLEQLEYSLESVTDLSSSSVSSSSPAVATFSYVDGVTELRFLQSDSTHCFNFDLASAQLFKLGPVHFICVSDGSSSSEEKSFSKGVNIKFKNEKDSKDFCESFEEWRNDSVVQGSSLQNGTVSANKSKFDNKIEASSAKMYFHYYGQLLHQQNMLQDYVRTGTYYAAVMENHSDFAGRVVVDVGAGSGILSMFAAQAGAKHVYAVEASEMAEYARKLIAGNPLFADRITVIKGKVEDIELPEKADILISEPMGTLLVNERMLESYVIARDRFMTPKGKMFPTVGRIHMAPFSDEFLFIEMANKAMFWQQQNYYGVDLTPLYGSAHQGYFSQPVVDAFDPRLLVASPMFHMIDFTQMKEEDFYEIDIPLKFTASMCTRMHGLACWFDVLFDGSTVQRWLTTAPGAPTTHWYQIRCVLSQPIYVMAGQEITGRLHLIAHSAQSYTIDLTLSAKMWGPGASQGGILQSSTCKFDLKEPYYRMSQPQAYPVAQEPPLQPQPELSTQQDIQTPNDELEEELLQQLPQNPSAQL
B1: the binding result in assay [1] is “binds”.

B2: CE-PRMT4b (the C-terminal part of YFP fused with PRMT4b) (protein, UniProt Q84W92 1-535)
chain: MEVSSVKKLEQLEYSLESVTDLSSSSVSSSSPAVATFSYVDGVTELRFLQSDSTHCFNFDLASAQLFKLGPVHFICVSDGSSSSEEKSFSKGVNIKFKNEKDSKDFCESFEEWRNDSVVQGSSLQNGTVSANKSKFDNKIEASSAKMYFHYYGQLLHQQNMLQDYVRTGTYYAAVMENHSDFAGRVVVDVGAGSGILSMFAAQAGAKHVYAVEASEMAEYARKLIAGNPLFADRITVIKGKVEDIELPEKADILISEPMGTLLVNERMLESYVIARDRFMTPKGKMFPTVGRIHMAPFSDEFLFIEMANKAMFWQQQNYYGVDLTPLYGSAHQGYFSQPVVDAFDPRLLVASPMFHMIDFTQMKEEDFYEIDIPLKFTASMCTRMHGLACWFDVLFDGSTVQRWLTTAPGAPTTHWYQIRCVLSQPIYVMAGQEITGRLHLIAHSAQSYTIDLTLSAKMWGPGASQGGILQSSTCKFDLKEPYYRMSQPQAYPVAQEPPLQPQPELSTQQDIQTPNDELEEELLQQLPQNPSAQL
As to B2, in assay [2], the binding entry is on record as “binds”.

B3: PRMT4a, two-hybrid partner of PQT3 (protein, UniProt A3KPF2 1-528)
chain: MEIPSLNKQQEFTLASVTDLTSPSSSLSSSPVVATFSCVNEVKELRFQESKSSDGFSFDLSSTQLFKLGPLQFTCVSDGSISSAKEKSSFSRGVVIKFRDEKDSKEFCDSFEECKKDDAVKQGSALPNGTVVSANKSKFDDKIEAASAKMYFHYYGQLLHQQNMLQDYVRTGTYHAAVMENRSDFSGRVVVDVGAGSGILSMFAALAGAKHVYAVEASEMAEYARKLIAGNPLLAERITVIKGKIEDIELPEKADVLISEPMGTLLVNERMLETYVIARDRFLSPNGKMFPTVGRIHMAPFADEFLFVEMANKALFWQQQNYYGVDLTPLYVSAHQGYFSQPVVDAFDPRLLVAPSMFHVIDFTMMTEEQFYEIDIPLKFTASVCTRIHGLACWFDVLFDGSTVQRWFTTAPGAPTTHWYQIRCVLSQPIHVMAGQEITGRLHLIAHSAQSYTINLTLSAKMWGPGANQGGILQTSSCKLDLKEPYYRMSQPQVYPTQEPPAQSQDIHIHSDDLEELELLQQNANAQL
As for B3, the binding entry in assay [1] was “no binding”.
